Amino acid sequences for entries named in this document (tags omitted).
UniProt Q9JKF1: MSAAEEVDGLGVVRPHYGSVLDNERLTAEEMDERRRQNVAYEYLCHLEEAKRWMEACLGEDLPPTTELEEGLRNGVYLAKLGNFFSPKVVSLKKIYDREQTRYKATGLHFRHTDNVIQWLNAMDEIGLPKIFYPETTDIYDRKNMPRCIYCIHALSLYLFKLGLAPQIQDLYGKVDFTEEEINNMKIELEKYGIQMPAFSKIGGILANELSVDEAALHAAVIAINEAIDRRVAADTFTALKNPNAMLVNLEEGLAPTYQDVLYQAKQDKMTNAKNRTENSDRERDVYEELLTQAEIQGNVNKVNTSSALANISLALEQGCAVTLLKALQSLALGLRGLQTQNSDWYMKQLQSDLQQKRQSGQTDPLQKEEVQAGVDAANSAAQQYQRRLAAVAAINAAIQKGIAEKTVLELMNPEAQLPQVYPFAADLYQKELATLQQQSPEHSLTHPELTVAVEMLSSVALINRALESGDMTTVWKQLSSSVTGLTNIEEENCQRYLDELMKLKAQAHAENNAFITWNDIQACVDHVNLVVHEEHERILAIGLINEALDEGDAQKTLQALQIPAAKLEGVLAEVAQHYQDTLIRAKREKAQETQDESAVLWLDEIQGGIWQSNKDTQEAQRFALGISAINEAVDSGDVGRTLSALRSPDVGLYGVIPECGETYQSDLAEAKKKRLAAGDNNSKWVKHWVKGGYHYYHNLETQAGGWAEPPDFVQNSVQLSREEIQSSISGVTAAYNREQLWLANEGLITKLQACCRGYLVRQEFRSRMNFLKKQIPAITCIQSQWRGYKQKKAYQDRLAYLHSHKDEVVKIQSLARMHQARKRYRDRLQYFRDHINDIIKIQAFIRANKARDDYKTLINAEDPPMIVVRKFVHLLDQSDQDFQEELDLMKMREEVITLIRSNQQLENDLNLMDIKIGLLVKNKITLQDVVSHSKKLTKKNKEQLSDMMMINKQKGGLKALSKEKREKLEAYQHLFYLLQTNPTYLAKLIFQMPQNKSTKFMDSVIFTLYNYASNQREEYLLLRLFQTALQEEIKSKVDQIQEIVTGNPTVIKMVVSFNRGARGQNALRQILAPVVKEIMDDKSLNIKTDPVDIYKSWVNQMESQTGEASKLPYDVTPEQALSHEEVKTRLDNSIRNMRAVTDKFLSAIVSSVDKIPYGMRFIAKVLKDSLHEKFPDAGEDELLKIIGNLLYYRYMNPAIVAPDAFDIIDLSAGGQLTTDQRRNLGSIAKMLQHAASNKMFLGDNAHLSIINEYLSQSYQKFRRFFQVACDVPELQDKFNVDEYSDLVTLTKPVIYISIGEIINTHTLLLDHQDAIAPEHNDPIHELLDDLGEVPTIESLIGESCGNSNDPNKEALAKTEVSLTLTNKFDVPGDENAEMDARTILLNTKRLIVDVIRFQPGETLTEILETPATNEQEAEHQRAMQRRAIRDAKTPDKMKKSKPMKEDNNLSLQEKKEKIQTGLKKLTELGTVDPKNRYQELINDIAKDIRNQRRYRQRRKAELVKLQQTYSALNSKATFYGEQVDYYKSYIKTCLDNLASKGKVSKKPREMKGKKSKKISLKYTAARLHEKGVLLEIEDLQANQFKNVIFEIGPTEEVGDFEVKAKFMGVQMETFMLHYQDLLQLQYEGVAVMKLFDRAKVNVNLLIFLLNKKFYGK

In PMC9811620:

Target: T1, Gasdermin D (GSDMD), endogenous in YAMC cells (mouse (endogenous in YAMC)) (UniProt Q9D8T2)
T1 sequence: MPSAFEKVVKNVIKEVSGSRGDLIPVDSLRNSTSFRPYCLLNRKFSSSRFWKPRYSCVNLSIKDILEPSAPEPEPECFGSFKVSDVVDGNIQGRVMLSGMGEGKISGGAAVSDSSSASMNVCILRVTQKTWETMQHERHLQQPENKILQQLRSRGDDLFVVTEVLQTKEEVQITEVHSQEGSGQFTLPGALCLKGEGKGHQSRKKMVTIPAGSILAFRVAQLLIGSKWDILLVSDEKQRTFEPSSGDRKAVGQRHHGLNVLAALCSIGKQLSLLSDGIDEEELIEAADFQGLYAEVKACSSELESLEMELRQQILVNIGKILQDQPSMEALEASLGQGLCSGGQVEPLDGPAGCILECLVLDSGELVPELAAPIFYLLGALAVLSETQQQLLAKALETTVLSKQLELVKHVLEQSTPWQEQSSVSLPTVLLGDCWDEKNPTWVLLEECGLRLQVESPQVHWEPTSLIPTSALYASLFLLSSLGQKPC
Test: affinity purification with mass spectrometry; immunoprecipitation of GSDMD from lysates of LPS-stimulated YAMCs, control IgG alongside, SDS-PAGE, in-gel trypsin digestion, LC-MS/MS, label-free spectral counting

## Ras GTPase-activating-like protein IQGAP1, endogenous in YAMC cells (from UniProt Q9JKF1 1-1657)
  binding: binds

Results are given in words; binding and its absence hold for the method and conditions named. In cells and extracts the contact can be indirect. Here binding means that the protein was enriched with, or labelled near, the bait; the list need not be complete.
